How the values were obtained:
Assay type in all cases: cell-based
[1] = system: Y strain of T. cruzi in the epimastigote form; experiment: Mechanism of death by 1H-NMR
[2] = system: epimastigote form of T. cruzi, Tulahuen 2 strain; experiment: Viability by flow cytometry, CA-AM/IP labeling; details: 20 × IC50
Procedure: Additionally, we evaluated the viability of treated parasites by flow cytometry analysis after incubation with methylated acetoxycalcein (CA-AM) and propidium iodide (IP). […] Since the methodology used to determine the IC50 is based on 5 days of incubation, doses 20 times higher were used to analyze cell viability in shorter times. Similarly, these compounds’ concentrations were used to determine the death mechanism involved at the aforementioned times.
Viability studies of parasites by flow cytometry: The feasibility studies were carried out by evaluating the esterase activity of the parasites using Acetoxymethylated Calcein (CA-AM) and IP (Thermo Fisher Scientific). […] Fluorescence intensity for 10,000 events was acquired from two independent experiments and data were analyzed using BD CSampler software (BD Bioscience).

[3] = system: epimastigote form of T. cruzi, Tulahuen 2 strain; experiment: Mechanism of death by flow cytometry, AV/IP labeling; details: 20 × IC50
Procedure: Parasites were immediately analyzed on an Accuri C6 flow cytometer (BD Bioscience, Franklin Lakes, New Jersey, U.S.). […] Ten thousand events were analyzed for each of the two independent experiments. Data were analyzed using BD CSampler software (BD Bioscience). Untreated parasites were used as a control. For the positive control of apoptosis and necrosis, the parasites were treated with hydrogen peroxide (H2O2) 50 µM and 100 µM for 2.5 h, respectively. These single-spot controls were used to calculate color compensation for flow cytometry.

Structure (SMILES)	Mechanism of death suggested by 1H-NMR [1]	Apparition of the Signal of Choline (3.10–3.30) ppm ([1]; 10 times IC50, control YES)	Cell death mechanism from CA-AM/IP labeling [2]	CH2/CH3 Ratio ([1]; 10 times IC50, control 0.27)	Cell death mechanism from AV/IP labeling [3]
O=C(Cn1ccnc1[N+](=O)[O-])NCc1ccccc1 [Bnz, Benznidazole]	neither apoptosis nor necrosis characteristic changes	YES	No changes		
CC1CS(=O)(=O)CCN1/N=C/c1ccc([N+](=O)[O-])o1 (stereo not shown) [Nfx, Nifurtimox, reference compound]	necrosis		late apoptosis mechanism	0.25	late apoptotic/necrotic mechanism

— article PMC9863266, “Preclinical Studies and Drug Combination of Low-Cost Molecules for Chagas Disease” (Pharmaceuticals, 2022)
